Values from PubChem BioAssay AID1259424 (University of Nebraska Medical Center, 2018)
The deposit covers about 14,000 reagents; shown is an unselected part. 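Higher correlation or smaller distance means closer resemblance to KSR1 loss; control wells, including KSR1 knockdowns, recur on many plates.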 Not stated in the record: the time to read-out.

- Assay: 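Find knockdowns that reproduce the expression shifts seen after KSR1 loss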 (primary screen)
- Cell system: human HCT116 colon cancer cells
- Reagent: siRNA pool against human genes, 50 nM
- Measured: 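Six signature mRNAs by branched-DNA multiplex assay, scaled to two housekeeping genes and non-targeting median, log2; matched to mean KSR1 knockdown profile by Pearson correlation and euclidean distance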
- Reading the numbers: mean correlation with KSR1 profile and KSR1 correlation: higher = expression change more like KSR1 knockdown; mean distance from KSR1 profile: higher = expression change less like KSR1 knockdown

| Gene | mean correlation with KSR1 profile | mean distance from KSR1 profile | KSR1 correlation, replicate 1 | KSR1 correlation, replicate 2 | KSR1 correlation, replicate 3 |
| --- | --- | --- | --- | --- | --- |
| IPO11 | -0.553 | 2.77 | -0.76 | -0.382 | -0.313 |
| MAB21L4 | 0.0604 | 1.98 | 0.0852 | 0.214 | 0.0252 |
| MED22 | 0.0837 | 2.68 | 0.14 | 0.251 | -0.199 |
| RP9 | -0.251 | 1.86 | -0.0597 | -0.334 | -0.303 |
| CRMP1 | -0.503 | 2.64 | -0.566 | -0.107 | -0.408 |
| KIR2DS4 | -0.349 | 1.98 | -0.505 | -0.658 | 0.147 |
| ASPA | 0.39 | 1.71 | 0.516 | 0.69 | 0.364 |
| TBX3 | -0.294 | 1.74 | 0.118 | 0.0665 | -0.421 |
| SNX10 | -0.0698 | 4.68 | -0.165 | -0.276 | -0.22 |
| ELL3 | 0.622 | 2.03 | 0.497 | 0.585 | 0.638 |
| CCDC86 | -0.739 | 5.5 | -0.836 | -0.598 | -0.841 |
| ADAM3A | -0.344 | 1.42 | -0.455 | -0.162 | -0.479 |
| PARVB | 0.353 | 2.63 | 0.0305 | 0.219 | 0.152 |
| DNAH8 | -0.549 | 2.9 | -0.444 | -0.634 | -0.619 |
| GALNT12 | 0.261 | 1.45 | 0.11 | 0.63 | 0.103 |
| ZNF322 | 0.564 | 3.34 | 0.601 | 0.664 | 0.234 |
| PHYHIP | -0.0955 | 1.92 | 0.0997 | 0.103 | -0.243 |
| MBD1 | 0.000256 | 1.63 | 0.431 | 0.266 | -0.527 |
| MSH3 | -0.467 | 2.16 | -0.911 | -0.629 | -0.0328 |
| UBL7 | 0.0886 | 1.54 | 0.109 | 0.191 | -0.326 |
| CD207 | 0.467 | 2.29 | 0.327 | 0.635 | 0.616 |
| POGZ | -0.185 | 1.9 | -0.229 | 0.0145 | -0.322 |
| MSRA | -0.129 | 2.18 | -0.355 | -0.00345 | -0.163 |
| TLE6 | 0.702 | 2.58 | 0.762 | 0.645 | 0.676 |
| AGT | -0.649 | 3.84 | -0.593 | -0.693 | -0.704 |
| ATP13A3 | -0.277 | 3.17 | -0.174 | -0.324 | -0.582 |
| STX12 | -0.394 | 1.4 | 0.0194 | -0.478 | -0.404 |
| TBXA2R | -0.253 | 4.72 | -0.234 | -0.123 | -0.291 |
| SPEF2 | 0.36 | 1.86 | 0.337 | 0.493 | 0.311 |
| HOXA7 | 0.353 | 2.57 | 0.288 | 0.43 | 0.486 |
| HSD17B3 | 0.0432 | 1.79 | 0.201 | -0.201 | 0.0383 |
| SLC6A5 | -0.0806 | 1.77 | 0.149 | -0.238 | 0.0152 |
| ARMCX1 | -0.185 | 1.77 | -0.312 | -0.0948 | 0.104 |
| PI15 | 0.271 | 2.29 | 0.346 | 0.285 | 0.263 |
| MLYCD | 0.0612 | 1.84 | -0.0375 | 0.103 | 0.0316 |
| WDR83OS | -0.194 | 2.35 | -0.338 | -0.239 | -0.227 |
| POMZP3 | -0.496 | 2.66 | -0.605 | 0.012 | -0.565 |
| EGFL6 | 0.437 | 1.72 | 0.399 | -0.0436 | 0.656 |
| TWF2 | -0.3 | 1.95 | 0.435 | -0.341 | -0.674 |
| ETV3 | 0.42 | 2.65 | 0.304 | 0.512 | 0.434 |
| LYL1 | -0.412 | 3.85 | -0.289 | -0.537 | -0.474 |

Targets above whose gene name begins with T or t (4):
| Gene | mean correlation with KSR1 profile | mean distance from KSR1 profile | KSR1 correlation, replicate 1 | KSR1 correlation, replicate 2 | KSR1 correlation, replicate 3 |
| --- | --- | --- | --- | --- | --- |
| TBX3 | -0.294 | 1.74 | 0.118 | 0.0665 | -0.421 |
| TLE6 | 0.702 | 2.58 | 0.762 | 0.645 | 0.676 |
| TBXA2R | -0.253 | 4.72 | -0.234 | -0.123 | -0.291 |
| TWF2 | -0.3 | 1.95 | 0.435 | -0.341 | -0.674 |

Next reagents follow.
| Gene | mean correlation with KSR1 profile | mean distance from KSR1 profile | KSR1 correlation, replicate 1 | KSR1 correlation, replicate 2 | KSR1 correlation, replicate 3 |
| --- | --- | --- | --- | --- | --- |
| RBM26 | -0.468 | 3.74 | -0.469 | -0.379 | -0.264 |
| F12 | 0.428 | 3.39 | -0.0547 | 0.364 | 0.533 |
| ATP6V0A2 | -0.119 | 1.31 | -0.154 | -0.345 | 0.212 |
| NUP37 | 0.443 | 1.73 | 0.222 | 0.391 | 0.229 |
| IMPDH2 | -0.235 | 4.33 | -0.14 | -0.333 | -0.319 |
| IFNGR2 | 0.083 | 1.35 | 0.185 | -0.363 | 0.244 |
| ARID3B | 0.129 | 2.3 | 0.224 | -0.0351 | 0.373 |
| PROCR | 0.312 | 1.25 | 0.3 | 0.273 | 0.367 |
| SSTR5 | 0.506 | 1.49 | 0.427 | 0.341 | 0.8 |
| SLC26A6 | 0.0159 | 2.36 | -0.273 | -0.033 | -0.0508 |
| PRDM1 | 0.288 | 1.79 | 0.532 | 0.376 | 0.298 |
| TFAP4 | -0.305 | 1.62 | 0.0641 | -0.26 | -0.249 |
| SLC22A2 | -0.425 | 1.94 | -0.466 | -0.386 | -0.147 |
| OLIG3 | -0.17 | 2.07 | -0.311 | -0.263 | -0.264 |
| SELL | 0.069 | 1.48 | -0.168 | 0.408 | 0.512 |
| GRTP1 | 0.415 | 1.91 | 0.477 | 0.507 | 0.215 |
| DHX37 | 0.365 | 2.02 | 0.251 | 0.156 | 0.288 |
| ITPK1 | 0.0696 | 2.74 | 0.249 | 0.185 | -0.137 |
| DLL4 | -0.402 | 1.16 | -0.204 | -0.187 | -0.552 |
| LTN1 | -0.503 | 2.58 | -0.249 | -0.522 | -0.47 |
| PHIP | -0.365 | 2.03 | -0.212 | -0.319 | -0.449 |
| CNNM3 | 0.573 | 1.47 | 0.531 | 0.505 | 0.618 |
